Data as given in PubChem BioAssay AID743454 (Peter MacCallum Cancer Centre, 2014).
Assay: 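Search for knock-downs that restore vorinostat killing in resistant colon cancer cells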 (primary screen). Cells: human HCT116-VR colon cancer cells, selected for vorinostat resistance. Knock-down reagent: siRNA pool against human genes, 40 nM siRNA pool. Timing: vorinostat for 24 h, read-out about 72 h after transfection. Challenge: vorinostat at 2.5 µM final. Detection: 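Two measures, CellTiter-Fluor viability and luminescent caspase 3/7 activity, each as fold change against same-plate mock wells, mean of duplicates, then screen-wide robust z-score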. Reading the numbers: viability robust z-score: higher = more viable cells than screen typical; caspase robust z-score: higher = more caspase 3/7 activity than screen typical. Call rule: 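Hits are knock-downs in viability class RV1/RV2 or caspase class CA1/CA2, excluding ones that killed cells in the no-drug cell-count arm; hits then retested with single siRNAs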.
Here is an unselected part of about 18,000 deposited reagents. 450 of all reagents (2.5%) were called active. 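Single biological run; no consistent viability z cut-off exists, so the class columns, not z-scores, define the calls.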 Entries without a mark were called inactive. No sequences are given here.

NWD1 (NACHT and WD repeat domain containing 1) — viability hit class: no change; caspase hit class: no change; viability robust z-score: -1.18; caspase robust z-score: -0.91
PEAK1 (pseudopodium enriched atypical kinase 1) — viability hit class: no change; caspase hit class: no change; viability robust z-score: 1.03; caspase robust z-score: -0.52
PPID (peptidylprolyl isomerase D) — viability hit class: no change; caspase hit class: no change; viability robust z-score: -0.02; caspase robust z-score: -0.35
PERP (p53 apoptosis effector related to PMP22) — viability hit class: no change; caspase hit class: no change; viability robust z-score: 0.64; caspase robust z-score: 0.3
SLC33A2 — viability hit class: no change; caspase hit class: no change; viability robust z-score: 0.02; caspase robust z-score: 1.34
ATP1A4 (ATPase Na+/K+ transporting subunit alpha 4) — viability hit class: no change; caspase hit class: no change; viability robust z-score: 0.41; caspase robust z-score: 0.95
FAM135A (family with sequence similarity 135 member A) — viability hit class: no change; caspase hit class: no change; viability robust z-score: 0.38; caspase robust z-score: -0.81
TMEM9 (transmembrane protein 9) — viability hit class: no change; caspase hit class: no change; viability robust z-score: 0.28; caspase robust z-score: 1.39
TVP23A (trans-golgi network vesicle protein 23 homolog A) — viability hit class: no change; caspase hit class: no change; viability robust z-score: 0.1; caspase robust z-score: -0.52
POLH (DNA polymerase eta) — viability hit class: no change; caspase hit class: no change; viability robust z-score: 0.67; caspase robust z-score: 1.52

Targets listed so far whose gene name begins with T or t (2):
TMEM9 (transmembrane protein 9) — viability hit class: no change; caspase hit class: no change; viability robust z-score: 0.28; caspase robust z-score: 1.39
TVP23A (trans-golgi network vesicle protein 23 homolog A) — viability hit class: no change; caspase hit class: no change; viability robust z-score: 0.1; caspase robust z-score: -0.52

The results go on:
EXT2 (exostosin glycosyltransferase 2) — viability hit class: no change; caspase hit class: no change; viability robust z-score: -0.17; caspase robust z-score: 0.76
CCNA2 (cyclin A2) — viability hit class: no change; caspase hit class: no change; viability robust z-score: -1.52; caspase robust z-score: 3.71
GALNT17 (polypeptide N-acetylgalactosaminyltransferase 17) — viability hit class: no change; caspase hit class: no change; viability robust z-score: 0.06; caspase robust z-score: 2.84
OR3A2 (olfactory receptor family 3 subfamily A member 2) — viability hit class: no change; caspase hit class: no change; viability robust z-score: 0.31; caspase robust z-score: 0.64
SPATA31A3 (SPATA31 subfamily A member 3) — viability hit class: no change; caspase hit class: no change; viability robust z-score: -1.06; caspase robust z-score: -0.02
MMP11 (matrix metallopeptidase 11) — viability hit class: no change; caspase hit class: no change; viability robust z-score: -2.42; caspase robust z-score: -0.34
TMEM198 (transmembrane protein 198) — viability hit class: no change; caspase hit class: no change; viability robust z-score: 0.38; caspase robust z-score: 0.78
EMCN (endomucin) — viability hit class: no change; caspase hit class: no change; viability robust z-score: 0.12; caspase robust z-score: -0.38
GALNT3 (polypeptide N-acetylgalactosaminyltransferase 3) — viability hit class: no change; caspase hit class: no change; viability robust z-score: -1.59; caspase robust z-score: 3.24
SLC22A7 — viability hit class: no change; caspase hit class: no change; viability robust z-score: -1.04; caspase robust z-score: 0.78
ZNF484 (zinc finger protein 484) — viability hit class: no change; caspase hit class: no change; viability robust z-score: 0.48; caspase robust z-score: -0.08
BOP1 (BOP1 ribosomal biogenesis factor) — viability hit class: no change; caspase hit class: no change; viability robust z-score: -0.58; caspase robust z-score: 2.47
STX6 (syntaxin 6) — viability hit class: no change; caspase hit class: no change; viability robust z-score: -1.95; caspase robust z-score: 0.4
IBA57 (iron-sulfur cluster assembly factor IBA57) — viability hit class: no change; caspase hit class: no change; viability robust z-score: 0.9; caspase robust z-score: 1.68
TMTC1 (transmembrane O-mannosyltransferase targeting cadherins 1) — viability hit class: no change; caspase hit class: no change; viability robust z-score: -0.36; caspase robust z-score: 0.97
NKX2-3 (NK2 homeobox 3) — viability hit class: no change; caspase hit class: no change; viability robust z-score: -0.2; caspase robust z-score: -0.52
NDUFAF6 (NADH:ubiquinone oxidoreductase complex assembly factor 6) — viability hit class: no change; caspase hit class: no change; viability robust z-score: 1.22; caspase robust z-score: -0.37
